Publication PMC4130184

What was measured:
PRIN2 = target: T1, PRIN2 (UniProt Q9XIK0); experiment: EMSA; conditions: 3 ug protein, DNA/protein 1:100, 50x unlabeled probe competition; EMSA: 10 mM Tris-HCl, 25 mM KCl, 1 mM DTT (1x from 10x stock; pH not stated), 1 ug poly(dI-dC) per 25 uL, 2.5% glycerol, 0.05% Triton X-100, 5 mM MgCl2, 10 mM EDTA; recombinant protein; protein details: His (pET_His1a); label: biotin-14-dCTP at 3' end; probe letters rebuilt from the primers and the genome
T1 sequence (looked up, limits assumed): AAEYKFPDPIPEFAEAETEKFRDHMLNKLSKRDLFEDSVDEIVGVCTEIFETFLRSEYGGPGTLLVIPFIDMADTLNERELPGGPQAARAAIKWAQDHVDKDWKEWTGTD

CSP41b = target: T2, CSP41b (UniProt Q9SA52); experiment: EMSA; conditions: 3 ug protein, DNA/protein 1:100, 50x unlabeled probe competition; EMSA: 10 mM Tris-HCl, 25 mM KCl, 1 mM DTT (1x from 10x stock; pH not stated), 1 ug poly(dI-dC) per 25 uL, 2.5% glycerol, 0.05% Triton X-100, 5 mM MgCl2, 10 mM EDTA; recombinant protein; residues 1-378; protein details: His (pET_His1a); label: biotin-14-dCTP at 3' end; probe letters rebuilt from the primers and the genome
T2 sequence (looked up): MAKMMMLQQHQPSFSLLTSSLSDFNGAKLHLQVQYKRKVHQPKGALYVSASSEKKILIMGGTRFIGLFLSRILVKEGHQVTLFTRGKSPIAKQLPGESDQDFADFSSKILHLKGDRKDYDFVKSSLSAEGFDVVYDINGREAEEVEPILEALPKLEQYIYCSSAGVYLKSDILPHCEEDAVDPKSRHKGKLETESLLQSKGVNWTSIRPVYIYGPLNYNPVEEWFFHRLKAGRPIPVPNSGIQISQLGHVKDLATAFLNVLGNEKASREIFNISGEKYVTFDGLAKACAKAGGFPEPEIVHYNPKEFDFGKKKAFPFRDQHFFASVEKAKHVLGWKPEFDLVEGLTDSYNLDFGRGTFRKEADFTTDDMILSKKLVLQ

Sequence: ACCCACTACGGATCGTATTCAATCGTATTCATATGATTTGGAAAAAATATTCCTAGAGCAATTCTATTTCTATGTATGTGGATTCGCTTCTAATTTATTTCATCGATTACAAAAAATTTTTTATGAATCTAAACTAAAAGGATCTTATCCATTTTACATTGGTTGACATGGCTATATAAGTCATGTTATACTGTTTC (double strand) [psbA promoter probe (197/198 bp)]
- binding result (PRIN2): binds
- binding result (CSP41b): binds

Construct, isoform or probe ends are uncertain for at least one entry. At least one verdict rests on a figure or table, not on a statement of the authors. Protein sequences can lack the tags named with them.
